Measured values as given in publication PMC12569825.
These are yes or no findings as the source states them, for the method shown. Binding seen in cells or lysates may run through a third protein. Here binding means that the protein was enriched with, or labelled near, the bait; the list need not be complete.

Amino acid sequences for entries named in this document (tags omitted).
UniProt Q96PU5: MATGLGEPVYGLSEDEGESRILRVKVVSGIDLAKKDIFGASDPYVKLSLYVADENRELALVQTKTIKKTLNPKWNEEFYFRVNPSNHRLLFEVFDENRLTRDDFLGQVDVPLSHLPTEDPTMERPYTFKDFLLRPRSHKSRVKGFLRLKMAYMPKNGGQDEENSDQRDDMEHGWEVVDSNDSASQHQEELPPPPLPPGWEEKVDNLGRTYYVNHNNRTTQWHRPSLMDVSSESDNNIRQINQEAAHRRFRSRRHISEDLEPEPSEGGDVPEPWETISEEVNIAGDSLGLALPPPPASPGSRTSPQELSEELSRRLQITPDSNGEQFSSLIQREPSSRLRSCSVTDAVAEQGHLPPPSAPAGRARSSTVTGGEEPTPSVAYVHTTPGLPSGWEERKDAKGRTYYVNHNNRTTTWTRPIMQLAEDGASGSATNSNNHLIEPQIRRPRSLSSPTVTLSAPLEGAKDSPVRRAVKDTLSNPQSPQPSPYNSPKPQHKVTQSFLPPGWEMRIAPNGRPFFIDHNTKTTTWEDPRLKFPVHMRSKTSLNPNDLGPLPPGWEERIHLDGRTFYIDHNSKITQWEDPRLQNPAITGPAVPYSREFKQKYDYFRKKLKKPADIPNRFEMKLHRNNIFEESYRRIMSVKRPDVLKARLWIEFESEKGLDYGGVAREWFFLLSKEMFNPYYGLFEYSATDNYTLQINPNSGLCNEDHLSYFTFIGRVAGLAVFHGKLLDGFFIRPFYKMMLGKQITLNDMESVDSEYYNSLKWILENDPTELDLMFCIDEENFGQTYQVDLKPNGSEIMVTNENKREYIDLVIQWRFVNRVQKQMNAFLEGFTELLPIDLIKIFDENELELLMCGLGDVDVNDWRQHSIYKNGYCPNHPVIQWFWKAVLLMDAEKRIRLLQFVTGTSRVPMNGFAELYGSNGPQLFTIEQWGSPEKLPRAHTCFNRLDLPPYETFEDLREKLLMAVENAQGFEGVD
UniProt Q6XZF7: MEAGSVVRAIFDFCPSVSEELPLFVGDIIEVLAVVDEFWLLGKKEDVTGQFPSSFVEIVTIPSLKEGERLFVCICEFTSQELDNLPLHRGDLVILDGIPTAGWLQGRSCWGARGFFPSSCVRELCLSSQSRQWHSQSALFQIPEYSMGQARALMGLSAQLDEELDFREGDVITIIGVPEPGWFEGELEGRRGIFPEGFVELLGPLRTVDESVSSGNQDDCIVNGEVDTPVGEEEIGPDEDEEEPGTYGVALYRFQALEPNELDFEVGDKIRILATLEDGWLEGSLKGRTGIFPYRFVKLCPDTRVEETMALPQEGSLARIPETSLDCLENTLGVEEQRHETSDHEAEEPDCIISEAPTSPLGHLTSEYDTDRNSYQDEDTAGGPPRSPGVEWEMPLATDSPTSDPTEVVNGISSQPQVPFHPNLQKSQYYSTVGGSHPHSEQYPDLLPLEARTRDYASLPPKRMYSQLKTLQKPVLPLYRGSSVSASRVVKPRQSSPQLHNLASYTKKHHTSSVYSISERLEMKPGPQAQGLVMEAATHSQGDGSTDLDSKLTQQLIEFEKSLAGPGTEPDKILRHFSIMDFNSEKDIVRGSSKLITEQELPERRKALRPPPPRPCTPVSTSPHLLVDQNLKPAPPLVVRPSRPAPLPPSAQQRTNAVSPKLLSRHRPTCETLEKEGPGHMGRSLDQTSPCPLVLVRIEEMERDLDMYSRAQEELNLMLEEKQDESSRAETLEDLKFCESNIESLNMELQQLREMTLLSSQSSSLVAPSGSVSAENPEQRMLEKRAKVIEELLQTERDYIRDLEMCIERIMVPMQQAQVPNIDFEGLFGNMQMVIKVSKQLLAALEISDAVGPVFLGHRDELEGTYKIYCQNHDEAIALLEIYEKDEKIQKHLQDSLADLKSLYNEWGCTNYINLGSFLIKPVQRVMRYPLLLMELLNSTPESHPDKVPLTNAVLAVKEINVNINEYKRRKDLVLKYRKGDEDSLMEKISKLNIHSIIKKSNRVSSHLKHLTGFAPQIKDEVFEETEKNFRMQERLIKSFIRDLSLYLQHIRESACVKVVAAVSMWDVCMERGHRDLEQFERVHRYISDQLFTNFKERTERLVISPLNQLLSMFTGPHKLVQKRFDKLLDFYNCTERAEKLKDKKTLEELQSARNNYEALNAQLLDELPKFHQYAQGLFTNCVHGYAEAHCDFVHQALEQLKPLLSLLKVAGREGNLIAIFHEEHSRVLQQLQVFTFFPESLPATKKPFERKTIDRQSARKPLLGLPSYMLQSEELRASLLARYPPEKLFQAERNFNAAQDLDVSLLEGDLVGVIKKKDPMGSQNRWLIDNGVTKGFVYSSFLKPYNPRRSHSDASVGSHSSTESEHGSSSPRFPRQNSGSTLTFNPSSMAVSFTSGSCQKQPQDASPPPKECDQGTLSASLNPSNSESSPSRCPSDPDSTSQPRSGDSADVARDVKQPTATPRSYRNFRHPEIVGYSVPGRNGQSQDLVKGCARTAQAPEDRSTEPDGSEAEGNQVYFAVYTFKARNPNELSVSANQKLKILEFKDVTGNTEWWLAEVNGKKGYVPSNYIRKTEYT

Molecular target: miniTurbo-tagged Nedd4-2 (BioID bait) (UniProt Q96PU5)
Assay: proximity labelling; BioID with miniTurbo-tagged Nedd4-2 (tag at N- or C-terminus) in 293 Flp-In T-REx cells; iso- or hyper-osmotic solutions with 50 μM biotin for 1 h; biotin-streptavidin affinity purification and mass spectrometry

**Q.** How did the binding turn out when “endogenous Dynamin Binding Protein (DNMBP) (from UniProt Q6XZF7 1-1577)” was run?
**A.** binds
